Source: the supplement of paper PMC12823440, “Inhibitors supercharge kinase turnover through native proteolytic circuits” (Nature, 2025)
Structures can show the parent of a compound that is named as a salt. The list shows a part of the results. Hit calls seldom repeat between salt and free forms of one compound.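 Kinases were expressed as nanoluciferase fusions in K562 cells and luminescence was read every 4 h between 2 and 18 h as percent of control, DMSO set to 100% and a positive control to 0%. A time point counts as decreased when the signal drops significantly (2 sigma). The hit call is the authors' own, does not follow from the count of time points alone, and its rule is not shown.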

Amino acid sequences for entries named in this document (tags omitted). A change or cut given only in a name is not applied to a line headed by its entry.
UniProt O96013: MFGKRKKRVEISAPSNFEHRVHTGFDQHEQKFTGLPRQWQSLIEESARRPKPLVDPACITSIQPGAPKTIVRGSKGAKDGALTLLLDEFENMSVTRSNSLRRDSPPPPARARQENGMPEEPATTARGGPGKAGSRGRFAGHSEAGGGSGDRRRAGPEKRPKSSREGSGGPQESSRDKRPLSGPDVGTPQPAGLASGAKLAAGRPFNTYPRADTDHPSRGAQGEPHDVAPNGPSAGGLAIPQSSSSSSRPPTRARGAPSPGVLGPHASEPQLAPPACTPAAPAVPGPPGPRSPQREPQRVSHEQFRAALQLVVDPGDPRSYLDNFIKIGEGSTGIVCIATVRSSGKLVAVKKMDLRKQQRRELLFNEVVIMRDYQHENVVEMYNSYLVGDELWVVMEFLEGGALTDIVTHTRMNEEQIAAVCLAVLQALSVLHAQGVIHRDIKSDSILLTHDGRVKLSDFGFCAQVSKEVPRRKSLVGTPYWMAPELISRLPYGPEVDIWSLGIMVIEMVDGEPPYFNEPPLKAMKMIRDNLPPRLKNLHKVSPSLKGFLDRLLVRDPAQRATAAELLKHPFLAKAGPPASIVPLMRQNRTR
UniProt P09619, whole entry: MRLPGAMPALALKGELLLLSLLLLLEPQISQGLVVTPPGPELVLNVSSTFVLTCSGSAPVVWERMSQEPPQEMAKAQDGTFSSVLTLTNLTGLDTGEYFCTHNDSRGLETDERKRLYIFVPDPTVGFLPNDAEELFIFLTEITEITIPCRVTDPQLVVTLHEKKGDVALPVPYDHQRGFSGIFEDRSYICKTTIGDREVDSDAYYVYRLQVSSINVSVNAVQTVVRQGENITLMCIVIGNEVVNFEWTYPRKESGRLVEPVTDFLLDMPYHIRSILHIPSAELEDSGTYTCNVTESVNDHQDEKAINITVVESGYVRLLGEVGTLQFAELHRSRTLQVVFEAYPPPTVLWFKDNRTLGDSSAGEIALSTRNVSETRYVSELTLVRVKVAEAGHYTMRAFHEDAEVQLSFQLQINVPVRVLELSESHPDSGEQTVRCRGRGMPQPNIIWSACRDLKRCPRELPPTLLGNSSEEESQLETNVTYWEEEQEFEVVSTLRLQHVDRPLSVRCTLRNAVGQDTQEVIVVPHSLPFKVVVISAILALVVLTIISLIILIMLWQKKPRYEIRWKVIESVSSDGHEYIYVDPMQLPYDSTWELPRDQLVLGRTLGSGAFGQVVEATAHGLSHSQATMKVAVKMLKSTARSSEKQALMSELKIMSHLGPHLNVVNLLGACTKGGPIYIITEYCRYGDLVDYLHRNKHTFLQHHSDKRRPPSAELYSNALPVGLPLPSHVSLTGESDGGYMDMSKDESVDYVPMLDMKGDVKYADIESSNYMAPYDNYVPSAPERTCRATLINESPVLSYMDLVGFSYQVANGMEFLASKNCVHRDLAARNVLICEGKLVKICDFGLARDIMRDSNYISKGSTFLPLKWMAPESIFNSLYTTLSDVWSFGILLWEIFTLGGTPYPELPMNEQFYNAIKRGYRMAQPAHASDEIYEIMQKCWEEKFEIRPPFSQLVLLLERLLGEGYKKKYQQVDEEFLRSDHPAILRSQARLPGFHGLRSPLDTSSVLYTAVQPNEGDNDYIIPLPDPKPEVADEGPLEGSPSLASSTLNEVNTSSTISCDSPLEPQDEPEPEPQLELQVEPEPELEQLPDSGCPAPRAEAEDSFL
UniProt O15530: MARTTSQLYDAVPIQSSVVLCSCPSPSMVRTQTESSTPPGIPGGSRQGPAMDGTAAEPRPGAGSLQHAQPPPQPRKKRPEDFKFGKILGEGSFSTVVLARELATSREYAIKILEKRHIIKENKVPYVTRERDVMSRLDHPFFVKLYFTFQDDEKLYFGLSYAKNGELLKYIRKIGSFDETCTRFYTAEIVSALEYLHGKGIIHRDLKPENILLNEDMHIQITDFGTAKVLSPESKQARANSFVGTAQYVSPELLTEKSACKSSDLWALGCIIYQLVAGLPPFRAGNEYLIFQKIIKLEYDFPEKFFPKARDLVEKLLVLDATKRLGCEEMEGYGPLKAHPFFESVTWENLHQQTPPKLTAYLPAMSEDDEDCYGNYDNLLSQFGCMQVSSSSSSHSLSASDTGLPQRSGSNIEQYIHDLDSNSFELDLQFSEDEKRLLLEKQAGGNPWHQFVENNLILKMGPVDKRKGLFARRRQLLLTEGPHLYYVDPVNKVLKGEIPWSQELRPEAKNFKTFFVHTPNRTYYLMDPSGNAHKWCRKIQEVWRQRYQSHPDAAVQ
UniProt P42356, whole entry, looked up: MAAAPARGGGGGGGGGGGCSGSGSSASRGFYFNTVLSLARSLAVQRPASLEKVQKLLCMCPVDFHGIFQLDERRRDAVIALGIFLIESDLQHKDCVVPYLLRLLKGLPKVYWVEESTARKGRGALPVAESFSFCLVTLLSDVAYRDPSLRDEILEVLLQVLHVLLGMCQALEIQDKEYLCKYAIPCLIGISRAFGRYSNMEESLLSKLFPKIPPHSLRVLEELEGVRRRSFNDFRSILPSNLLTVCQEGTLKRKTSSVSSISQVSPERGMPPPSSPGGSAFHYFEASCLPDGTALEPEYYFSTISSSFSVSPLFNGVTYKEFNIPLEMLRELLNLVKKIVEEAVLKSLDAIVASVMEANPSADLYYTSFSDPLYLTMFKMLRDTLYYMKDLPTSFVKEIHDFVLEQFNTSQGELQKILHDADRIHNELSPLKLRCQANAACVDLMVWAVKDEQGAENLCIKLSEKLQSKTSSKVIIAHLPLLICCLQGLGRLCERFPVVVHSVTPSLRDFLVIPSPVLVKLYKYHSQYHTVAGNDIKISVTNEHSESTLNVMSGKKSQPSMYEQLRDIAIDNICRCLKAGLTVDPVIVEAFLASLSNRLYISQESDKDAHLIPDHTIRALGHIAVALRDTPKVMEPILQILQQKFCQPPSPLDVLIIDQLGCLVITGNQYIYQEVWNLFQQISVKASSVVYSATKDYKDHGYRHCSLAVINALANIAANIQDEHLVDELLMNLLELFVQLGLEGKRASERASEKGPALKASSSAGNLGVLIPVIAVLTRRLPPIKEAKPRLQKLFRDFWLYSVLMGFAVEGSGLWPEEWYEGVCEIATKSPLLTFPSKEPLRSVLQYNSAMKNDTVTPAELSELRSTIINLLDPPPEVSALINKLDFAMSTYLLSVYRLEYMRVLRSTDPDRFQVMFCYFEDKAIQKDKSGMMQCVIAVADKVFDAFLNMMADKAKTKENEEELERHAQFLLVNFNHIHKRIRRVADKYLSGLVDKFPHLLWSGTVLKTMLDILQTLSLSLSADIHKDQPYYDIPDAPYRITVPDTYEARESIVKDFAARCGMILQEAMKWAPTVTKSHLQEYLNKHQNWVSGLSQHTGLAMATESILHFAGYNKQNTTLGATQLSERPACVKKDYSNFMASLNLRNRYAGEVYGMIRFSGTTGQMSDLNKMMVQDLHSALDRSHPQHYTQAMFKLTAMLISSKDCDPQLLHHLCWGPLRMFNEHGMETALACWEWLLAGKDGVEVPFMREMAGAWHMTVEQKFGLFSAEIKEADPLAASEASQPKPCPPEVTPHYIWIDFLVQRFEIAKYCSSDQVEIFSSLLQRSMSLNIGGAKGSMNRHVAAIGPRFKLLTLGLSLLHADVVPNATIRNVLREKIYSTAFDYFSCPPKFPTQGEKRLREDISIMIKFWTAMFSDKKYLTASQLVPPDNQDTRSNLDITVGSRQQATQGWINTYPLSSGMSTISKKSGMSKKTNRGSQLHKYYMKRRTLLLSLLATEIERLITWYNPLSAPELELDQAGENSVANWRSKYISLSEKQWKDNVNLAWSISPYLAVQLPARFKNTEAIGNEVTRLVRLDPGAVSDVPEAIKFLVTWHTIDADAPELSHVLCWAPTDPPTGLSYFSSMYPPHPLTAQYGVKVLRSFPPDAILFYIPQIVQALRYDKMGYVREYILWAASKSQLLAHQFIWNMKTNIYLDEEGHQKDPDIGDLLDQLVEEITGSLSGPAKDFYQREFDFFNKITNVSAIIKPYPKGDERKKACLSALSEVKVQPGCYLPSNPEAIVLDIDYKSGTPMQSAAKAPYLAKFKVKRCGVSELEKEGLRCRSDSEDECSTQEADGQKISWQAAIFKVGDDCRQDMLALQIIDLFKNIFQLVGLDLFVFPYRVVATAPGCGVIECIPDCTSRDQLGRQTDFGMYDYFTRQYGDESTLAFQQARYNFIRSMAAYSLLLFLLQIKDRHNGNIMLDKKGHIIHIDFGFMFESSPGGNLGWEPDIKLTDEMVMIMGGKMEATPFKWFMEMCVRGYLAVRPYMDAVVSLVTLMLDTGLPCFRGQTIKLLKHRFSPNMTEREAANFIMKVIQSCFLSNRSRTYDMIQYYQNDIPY
UniProt Q9UBF8: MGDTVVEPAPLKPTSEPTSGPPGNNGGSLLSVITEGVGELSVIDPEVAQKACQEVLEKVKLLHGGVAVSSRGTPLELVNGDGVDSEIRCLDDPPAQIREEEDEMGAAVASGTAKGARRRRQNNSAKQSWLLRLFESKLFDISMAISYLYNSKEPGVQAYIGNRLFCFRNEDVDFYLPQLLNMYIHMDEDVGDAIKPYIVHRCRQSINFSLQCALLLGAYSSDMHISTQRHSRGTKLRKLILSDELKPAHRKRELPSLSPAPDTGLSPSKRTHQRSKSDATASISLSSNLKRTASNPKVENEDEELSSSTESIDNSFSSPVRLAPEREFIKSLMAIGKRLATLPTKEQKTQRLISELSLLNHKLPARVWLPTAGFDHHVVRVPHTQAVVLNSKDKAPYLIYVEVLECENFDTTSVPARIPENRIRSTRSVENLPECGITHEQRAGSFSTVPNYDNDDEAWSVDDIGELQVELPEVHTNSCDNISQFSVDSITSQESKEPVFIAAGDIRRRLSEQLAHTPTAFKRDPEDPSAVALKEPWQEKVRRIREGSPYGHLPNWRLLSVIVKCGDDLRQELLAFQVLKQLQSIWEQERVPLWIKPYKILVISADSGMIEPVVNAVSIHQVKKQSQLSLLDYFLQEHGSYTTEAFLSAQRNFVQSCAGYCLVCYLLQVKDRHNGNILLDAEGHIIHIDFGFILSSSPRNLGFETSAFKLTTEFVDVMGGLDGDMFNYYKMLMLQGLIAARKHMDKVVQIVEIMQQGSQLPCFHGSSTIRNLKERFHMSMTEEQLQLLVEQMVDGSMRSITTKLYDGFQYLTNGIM
UniProt P53350, whole entry: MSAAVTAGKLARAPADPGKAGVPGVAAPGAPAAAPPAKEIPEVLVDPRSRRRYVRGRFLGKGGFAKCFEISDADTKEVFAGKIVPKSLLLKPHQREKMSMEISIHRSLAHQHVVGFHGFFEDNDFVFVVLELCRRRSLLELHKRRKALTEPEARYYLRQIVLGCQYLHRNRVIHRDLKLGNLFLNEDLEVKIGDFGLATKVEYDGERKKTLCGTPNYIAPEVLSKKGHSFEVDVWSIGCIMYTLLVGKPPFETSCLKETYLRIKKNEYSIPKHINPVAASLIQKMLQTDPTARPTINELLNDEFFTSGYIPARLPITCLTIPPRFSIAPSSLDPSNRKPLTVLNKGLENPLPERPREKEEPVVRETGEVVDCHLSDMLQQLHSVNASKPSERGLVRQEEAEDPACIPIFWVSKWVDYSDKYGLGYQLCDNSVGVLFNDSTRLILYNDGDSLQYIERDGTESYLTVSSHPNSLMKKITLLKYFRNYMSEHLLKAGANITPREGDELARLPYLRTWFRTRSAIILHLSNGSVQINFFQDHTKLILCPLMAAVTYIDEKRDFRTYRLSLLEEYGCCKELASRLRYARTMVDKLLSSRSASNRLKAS
UniProt Q13131: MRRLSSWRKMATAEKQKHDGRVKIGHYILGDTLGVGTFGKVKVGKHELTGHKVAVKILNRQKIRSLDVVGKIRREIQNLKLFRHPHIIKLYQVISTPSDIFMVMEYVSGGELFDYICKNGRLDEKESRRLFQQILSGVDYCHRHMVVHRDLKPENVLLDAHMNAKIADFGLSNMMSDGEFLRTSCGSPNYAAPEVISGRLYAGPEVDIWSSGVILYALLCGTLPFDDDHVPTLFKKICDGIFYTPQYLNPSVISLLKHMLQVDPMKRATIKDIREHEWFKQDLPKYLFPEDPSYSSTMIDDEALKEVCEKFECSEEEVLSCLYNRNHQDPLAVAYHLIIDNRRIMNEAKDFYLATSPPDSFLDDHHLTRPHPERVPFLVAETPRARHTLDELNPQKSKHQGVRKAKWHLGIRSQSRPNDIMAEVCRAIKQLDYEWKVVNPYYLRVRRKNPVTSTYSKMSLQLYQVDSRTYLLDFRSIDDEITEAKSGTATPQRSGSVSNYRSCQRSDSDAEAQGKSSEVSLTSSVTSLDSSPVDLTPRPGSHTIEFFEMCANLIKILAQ

Key:
Assay in all cases: number of time points (of 5) at which kinase-Nluc abundance scored as decreased, DMSO-normalised (count); higher = more persistent destabilization
Details in all cases: K562; 2-18 h
NTRK3 = NTRK3 (UniProt Q16288)
PAK4 = PAK4 (UniProt O96013)
PBK = PBK (UniProt Q96KB5)
PDGFRB = PDGFRB (UniProt P09619)
PDK1 = PDK1 (UniProt Q15118)
PDPK1 = PDPK1 (UniProt O15530)
PIK4CA = PIK4CA (UniProt P42356)
PIK4CB = PIK4CB (UniProt Q9UBF8)
PLK1 = PLK1 (UniProt P53350)
PRKAA1 = PRKAA1 (UniProt Q13131)

Measured: number of time points

O=C1NC(=O)/C(=C\c2c[nH]c(=O)c(-c3ccc(N4CCNCC4)nc3)c2)S1 [Protein kinase inhibitors 1 hydrochloride] (10 µM)
0: NTRK3 | PAK4 | PBK | PDGFRB | PDK1 | PDPK1 | PIK4CA | PIK4CB | PLK1 | PRKAA1

C#Cc1cccc(Nc2ncnc3cc(OC)c(NC(=O)N4C[C@H]5CCN(C)[C@H]5C4)cc23)c1 [Theliatinib] (10 µM)
0: NTRK3 | PAK4 | PBK | PDGFRB | PDK1 | PDPK1 | PIK4CA | PIK4CB | PLK1 | PRKAA1

COc1ccc2c3n(c(=NC(=O)c4cccnc4)nc2c1OC)CCN3 (2 µM)
0: NTRK3 | PAK4 | PBK | PDGFRB | PDK1 | PDPK1 | PIK4CA | PIK4CB | PLK1 | PRKAA1

N[C@@H]1CCCN(c2c(/C=C3\SC(=O)NC3=O)cccc2-c2ccccc2)C1 (10 µM)
0: NTRK3 | PAK4 | PBK | PDGFRB | PDK1 | PDPK1 | PIK4CA | PIK4CB | PLK1 | PRKAA1

O=C(O)c1ccc(/C=C/S(=O)(=O)Cc2ccc(Cl)cc2)cc1 [Recilisib] (10 µM)
0: NTRK3 | PAK4 | PBK | PDGFRB | PDK1 | PDPK1 | PIK4CA | PIK4CB | PLK1 | PRKAA1

O=C(Nc1cc(Cl)cc2c1[nH]c1cnccc12)c1cccnc1 (10 µM)
0: NTRK3 | PAK4 | PBK | PDGFRB | PDK1 | PDPK1 | PIK4CA | PIK4CB | PLK1 | PRKAA1

COc1ccc(Br)cc1NC(=O)Nc1cccc2c1ccn2Cc1ccnc(N)c1 (2.5 µM)
0: NTRK3 | PAK4 | PBK | PDGFRB | PDK1 | PDPK1 | PIK4CA | PIK4CB | PLK1 | PRKAA1

C=CC(=O)Nc1cc(Nc2nccc(-c3cn(C)c4ccccc34)n2)c(OC)cc1OCCN(C)C [Rezivertinib] (2.5 µM)
0: NTRK3 | PAK4 | PBK | PDGFRB | PDK1 | PDPK1 | PIK4CA | PIK4CB | PLK1 | PRKAA1

Retrieved one by one from the entries so far (2):
COc1ccc(Br)cc1NC(=O)Nc1cccc2c1ccn2Cc1ccnc(N)c1 (2.5 µM)
0: NTRK3 | PAK4 | PBK | PDGFRB | PDK1 | PDPK1 | PIK4CA | PIK4CB | PLK1 | PRKAA1

C=CC(=O)Nc1cc(Nc2nccc(-c3cn(C)c4ccccc34)n2)c(OC)cc1OCCN(C)C [Rezivertinib] (2.5 µM)
0: NTRK3 | PAK4 | PBK | PDGFRB | PDK1 | PDPK1 | PIK4CA | PIK4CB | PLK1 | PRKAA1

Later entries.

N#Cc1cnc2c(Cl)cc(NCc3cn(CCN4CCCCCC4)nn3)cc2c1Nc1ccc(F)c(Cl)c1 [Cot inhibitor-1] (10 µM)
0: NTRK3 | PAK4 | PBK | PDGFRB | PDK1 | PDPK1 | PIK4CA | PIK4CB | PLK1 | PRKAA1

Cc1nn(C)cc1-c1nc2c(N3CCN(Cc4ccc(Cl)cc4)CC3)c(Cl)cnc2[nH]1 (10 µM)
0: NTRK3 | PAK4 | PBK | PDGFRB | PDK1 | PDPK1 | PIK4CA | PIK4CB | PLK1 | PRKAA1

CCC(=O)Nc1cccc(Oc2nc(Nc3ccc(N4CCN(C)CC4)cc3OC)ncc2Cl)c1 (10 µM)
0: NTRK3 | PAK4 | PBK | PDGFRB | PDK1 | PDPK1 | PIK4CA | PLK1 | PRKAA1
1: PIK4CB

Nc1ncnc2c1nc(Br)n2[C@@H]1O[C@@H]2COP(=O)(O)O[C@H]2[C@H]1O [8-Bromo-cAMP sodium salt] (10 µM)
0: NTRK3 | PAK4 | PBK | PDGFRB | PDK1 | PDPK1 | PIK4CA | PIK4CB | PLK1 | PRKAA1

O=C(O)[C@H]1O[C@@H](Oc2cc3oc(-c4ccc(O)cc4)cc(=O)c3c(O)c2O)[C@H](O)[C@@H](O)[C@@H]1O [Scutellarin] (10 µM)
0: NTRK3 | PAK4 | PBK | PDGFRB | PDK1 | PDPK1 | PIK4CA | PIK4CB | PLK1 | PRKAA1

NC(=O)c1cnc(-c2ccc(C3(N)CCC3)cc2)c(-c2ccccc2)c1 (10 µM)
0: NTRK3 | PAK4 | PBK | PDGFRB | PDK1 | PDPK1 | PIK4CA | PIK4CB | PLK1 | PRKAA1

COc1cc2cc(Oc3ccc4ccc(=O)oc4c3)c(=O)oc2cc1O [Daphnoretin] (10 µM)
0: NTRK3 | PAK4 | PBK | PDGFRB | PDK1 | PDPK1 | PIK4CA | PIK4CB | PLK1 | PRKAA1

Cc1cc(Nc2cc(N)ncn2)c(=O)n2c1C(=O)NC21CCCCC1 [Tomivosertib] (10 µM)
0: NTRK3 | PAK4 | PBK | PDGFRB | PDK1 | PDPK1 | PIK4CA | PIK4CB | PLK1 | PRKAA1

CCCn1/c(=N/C(=O)c2cccc(C(N)=O)c2)[nH]c2ccccc21 [Takinib] (10 µM)
0: NTRK3 | PAK4 | PBK | PDGFRB | PDK1 | PDPK1 | PIK4CA | PIK4CB | PLK1 | PRKAA1

COc1ccc(Nc2ncc(C(F)(F)F)c(NC3CC3)n2)cc1OC (10 µM)
0: PAK4 | PBK | PDGFRB | PDK1 | PLK1 | PRKAA1
2: NTRK3 | PDPK1 | PIK4CA | PIK4CB

O=C(NCCN1CCOCC1)Nc1nc2ccc(Sc3nnc4ccc(-c5ccc(F)cc5)nn34)cc2s1 (10 µM)
0: NTRK3 | PAK4 | PBK | PDGFRB | PDK1 | PDPK1 | PIK4CA | PIK4CB | PLK1 | PRKAA1

Oc1c(F)cc(-c2cnccc2-c2ccc(N3CCOCC3)cc2)cc1F (10 µM)
0: NTRK3 | PAK4 | PBK | PDGFRB | PDK1 | PDPK1 | PIK4CA | PIK4CB | PLK1 | PRKAA1

Nc1nc(NCCNc2ncc(-n3ccnc3)c(-c3ccc(Cl)cc3Cl)n2)ccc1[N+](=O)[O-] (2.5 µM)
0: NTRK3 | PAK4 | PBK | PDGFRB | PDK1 | PDPK1 | PIK4CA | PIK4CB | PLK1 | PRKAA1

NCCOc1ccc(Cl)cc1C(=O)Nc1ccc([N+](=O)[O-])cc1Cl [HJC0152 hydrochloride] (2 µM)
0: NTRK3 | PAK4 | PBK | PDGFRB | PDK1 | PDPK1 | PIK4CA | PIK4CB | PLK1 | PRKAA1

Cc1c(C(=O)Nc2ccc(Oc3ccnc4[nH]cc(-c5ccccc5)c34)c(F)c2)c(=O)n(-c2ccc(F)cc2)n1C (10 µM)
1: PDPK1
0: NTRK3 | PAK4 | PBK | PDGFRB | PDK1 | PIK4CA | PIK4CB | PLK1 | PRKAA1

CN(C)c1ccc(-c2nc3ncc(Cl)c(N4CCN(CC(=O)Nc5nccs5)CC4)c3[nH]2)cc1 (2 µM)
0: NTRK3 | PAK4 | PBK | PDGFRB | PDK1 | PDPK1 | PIK4CA | PIK4CB | PLK1 | PRKAA1

CC(C)(C)Cc1[nH]nc2c1[C@@](C)(c1ccccc1)C1=C(CC(C)(C)CC1=O)N2 (10 µM)
0: NTRK3 | PAK4 | PBK | PDGFRB | PDK1 | PDPK1 | PIK4CA | PIK4CB | PLK1 | PRKAA1

Cc1ccc(C)c(OCCn2cc(C(=O)O)c3ccccc32)c1 (10 µM)
0: NTRK3 | PAK4 | PBK | PDGFRB | PDK1 | PDPK1 | PIK4CA | PIK4CB | PLK1 | PRKAA1

Cc1cc(C(=O)Nc2nc3cccc(Cl)c3n2[C@@H]2CCCCN(C(=O)/C=C/CN(C)C)C2)ccn1 [Nazartinib] (10 µM)
0: NTRK3 | PAK4 | PBK | PDGFRB | PDK1 | PDPK1 | PIK4CA | PIK4CB | PLK1 | PRKAA1

Cn1cc(-c2cc(Oc3cc(F)c(NC(=O)C4(C(=O)Nc5ccccc5)CC4)cc3F)ccn2)cn1 (2.5 µM)
0: NTRK3 | PAK4 | PBK | PDGFRB | PDK1 | PIK4CA | PIK4CB | PLK1 | PRKAA1
1: PDPK1

Nc1nccc(-c2c(-c3ccc(F)cc3)ncn2C2CCCCC2)n1 (10 µM)
0: NTRK3 | PAK4 | PBK | PDGFRB | PDK1 | PDPK1 | PIK4CA | PIK4CB | PLK1 | PRKAA1

O=C1OC(/C=C/c2ccccc2)=NC/1=C\c1cccnc1 (10 µM)
0: NTRK3 | PAK4 | PBK | PDGFRB | PDK1 | PDPK1 | PIK4CA | PIK4CB | PLK1 | PRKAA1

CC(C)n1c(=O)n(C)c2cnc3cc(F)c(-c4ccc(OCCCN5CCCCC5)nc4)cc3c21 (10 µM)
0: NTRK3 | PAK4 | PBK | PDGFRB | PDK1 | PDPK1 | PIK4CA | PIK4CB | PLK1 | PRKAA1

CC(C)Oc1ccc(F)c(-c2cnc(N)c(C(=O)Nc3cnccc3N3CCC[C@@H](C(=O)O)C3)n2)c1 (2 µM)
0: NTRK3 | PAK4 | PBK | PDGFRB | PDK1 | PDPK1 | PIK4CA | PIK4CB | PLK1 | PRKAA1

O=c1[nH]ccc2nc(-c3ccc(CN4CCC(c5nc(-c6ccccn6)n[nH]5)CC4)cc3)c(-c3ccccc3)cc12 (10 µM)
0: NTRK3 | PAK4 | PBK | PDGFRB | PDK1 | PDPK1 | PIK4CA | PIK4CB | PLK1 | PRKAA1
